We go through eleven targets from the supplement of paper PMC12819154, “High-throughput peptide-centric local stability assay extends protein–ligand identification to membrane proteins, tissues and bacteria” (Nature Structural & Molecular Biology, 2025).

Protein sequences, listed by entry. Tags and fused reporters are not part of them. Lines headed by an entry give the natural chain unless they say otherwise; changes in a name come on top.
UniProt Q96EQ0: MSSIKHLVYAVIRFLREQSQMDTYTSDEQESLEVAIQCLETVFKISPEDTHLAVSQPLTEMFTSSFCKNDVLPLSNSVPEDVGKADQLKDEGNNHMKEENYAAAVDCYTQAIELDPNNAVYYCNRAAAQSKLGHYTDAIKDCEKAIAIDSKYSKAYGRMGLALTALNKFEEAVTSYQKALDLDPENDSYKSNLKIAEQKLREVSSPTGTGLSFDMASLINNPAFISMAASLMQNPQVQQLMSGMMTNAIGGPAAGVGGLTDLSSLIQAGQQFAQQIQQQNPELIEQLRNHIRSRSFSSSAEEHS
UniProt Q96DL1: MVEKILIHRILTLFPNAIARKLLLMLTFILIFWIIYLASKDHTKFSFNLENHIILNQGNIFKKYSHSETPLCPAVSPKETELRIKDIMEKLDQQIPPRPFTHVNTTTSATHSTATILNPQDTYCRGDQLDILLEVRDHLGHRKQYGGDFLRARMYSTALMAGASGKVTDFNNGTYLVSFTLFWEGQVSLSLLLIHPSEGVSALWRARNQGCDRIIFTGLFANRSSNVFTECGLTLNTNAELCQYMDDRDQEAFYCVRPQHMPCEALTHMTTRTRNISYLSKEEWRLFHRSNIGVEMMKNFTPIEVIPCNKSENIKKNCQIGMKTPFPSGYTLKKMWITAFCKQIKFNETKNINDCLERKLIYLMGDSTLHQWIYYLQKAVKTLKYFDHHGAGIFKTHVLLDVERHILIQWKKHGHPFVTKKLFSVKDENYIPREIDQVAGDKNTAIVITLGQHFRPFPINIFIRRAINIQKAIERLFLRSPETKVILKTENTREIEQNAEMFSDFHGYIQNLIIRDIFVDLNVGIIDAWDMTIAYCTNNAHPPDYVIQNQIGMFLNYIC
UniProt Q96BR1: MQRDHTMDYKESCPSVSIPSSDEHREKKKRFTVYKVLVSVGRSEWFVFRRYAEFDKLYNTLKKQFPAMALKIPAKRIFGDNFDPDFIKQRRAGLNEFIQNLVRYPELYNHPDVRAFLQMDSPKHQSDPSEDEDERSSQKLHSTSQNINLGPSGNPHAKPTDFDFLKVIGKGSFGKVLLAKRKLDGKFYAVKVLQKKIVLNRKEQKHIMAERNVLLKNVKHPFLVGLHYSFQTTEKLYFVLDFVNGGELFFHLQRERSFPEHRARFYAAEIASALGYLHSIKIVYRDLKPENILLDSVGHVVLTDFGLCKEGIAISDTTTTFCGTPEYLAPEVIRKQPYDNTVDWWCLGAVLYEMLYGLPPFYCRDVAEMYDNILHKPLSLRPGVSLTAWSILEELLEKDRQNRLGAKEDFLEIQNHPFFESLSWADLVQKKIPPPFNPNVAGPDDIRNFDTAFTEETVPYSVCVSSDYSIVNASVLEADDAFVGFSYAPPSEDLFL
UniProt Q96E09: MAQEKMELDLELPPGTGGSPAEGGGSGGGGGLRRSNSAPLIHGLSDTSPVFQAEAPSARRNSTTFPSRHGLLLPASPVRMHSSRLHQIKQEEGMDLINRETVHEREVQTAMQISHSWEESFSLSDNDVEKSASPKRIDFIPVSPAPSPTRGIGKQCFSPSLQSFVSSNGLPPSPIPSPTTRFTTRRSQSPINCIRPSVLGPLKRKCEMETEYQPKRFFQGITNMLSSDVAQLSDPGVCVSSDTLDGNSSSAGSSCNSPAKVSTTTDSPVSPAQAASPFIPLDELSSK
UniProt Q92945: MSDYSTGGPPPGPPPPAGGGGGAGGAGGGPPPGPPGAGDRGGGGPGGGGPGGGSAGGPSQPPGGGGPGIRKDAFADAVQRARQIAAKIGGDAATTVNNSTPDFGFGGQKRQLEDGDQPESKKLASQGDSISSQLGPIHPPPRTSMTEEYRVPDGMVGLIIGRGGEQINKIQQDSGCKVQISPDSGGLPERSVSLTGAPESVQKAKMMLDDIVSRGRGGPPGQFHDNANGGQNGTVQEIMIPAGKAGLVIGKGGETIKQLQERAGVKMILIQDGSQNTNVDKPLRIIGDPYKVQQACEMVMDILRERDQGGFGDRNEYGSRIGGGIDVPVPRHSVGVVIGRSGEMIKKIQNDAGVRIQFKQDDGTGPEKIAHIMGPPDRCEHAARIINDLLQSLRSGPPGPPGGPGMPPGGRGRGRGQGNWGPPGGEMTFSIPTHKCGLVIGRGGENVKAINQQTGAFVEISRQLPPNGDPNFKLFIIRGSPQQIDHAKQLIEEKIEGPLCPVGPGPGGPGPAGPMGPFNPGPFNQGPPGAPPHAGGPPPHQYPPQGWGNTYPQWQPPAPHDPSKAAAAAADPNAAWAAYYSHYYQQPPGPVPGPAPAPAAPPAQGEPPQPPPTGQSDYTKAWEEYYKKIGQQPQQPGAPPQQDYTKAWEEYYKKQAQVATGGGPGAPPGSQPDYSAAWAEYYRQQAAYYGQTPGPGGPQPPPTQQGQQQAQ
UniProt Q93034, whole entry: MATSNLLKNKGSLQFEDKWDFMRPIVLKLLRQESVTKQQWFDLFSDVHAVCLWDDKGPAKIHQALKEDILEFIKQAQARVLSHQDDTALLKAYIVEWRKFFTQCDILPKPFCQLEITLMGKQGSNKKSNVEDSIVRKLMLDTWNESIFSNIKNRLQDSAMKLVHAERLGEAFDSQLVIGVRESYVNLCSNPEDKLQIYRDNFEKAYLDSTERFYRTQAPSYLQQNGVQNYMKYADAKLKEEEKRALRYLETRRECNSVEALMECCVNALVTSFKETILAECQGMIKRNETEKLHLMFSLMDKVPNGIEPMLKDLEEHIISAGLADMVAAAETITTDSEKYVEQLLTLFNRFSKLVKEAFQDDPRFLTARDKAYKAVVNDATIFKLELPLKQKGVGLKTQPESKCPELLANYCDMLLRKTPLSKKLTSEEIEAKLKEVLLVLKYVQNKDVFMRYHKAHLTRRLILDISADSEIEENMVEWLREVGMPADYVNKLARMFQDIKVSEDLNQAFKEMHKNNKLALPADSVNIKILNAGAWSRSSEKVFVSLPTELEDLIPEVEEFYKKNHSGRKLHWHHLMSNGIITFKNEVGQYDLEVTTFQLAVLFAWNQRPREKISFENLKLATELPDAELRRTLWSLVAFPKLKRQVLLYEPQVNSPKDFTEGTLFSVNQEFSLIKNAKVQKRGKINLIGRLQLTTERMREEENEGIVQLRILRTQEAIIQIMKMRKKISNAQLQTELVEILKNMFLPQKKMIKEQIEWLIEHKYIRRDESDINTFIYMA
UniProt Q96DC7: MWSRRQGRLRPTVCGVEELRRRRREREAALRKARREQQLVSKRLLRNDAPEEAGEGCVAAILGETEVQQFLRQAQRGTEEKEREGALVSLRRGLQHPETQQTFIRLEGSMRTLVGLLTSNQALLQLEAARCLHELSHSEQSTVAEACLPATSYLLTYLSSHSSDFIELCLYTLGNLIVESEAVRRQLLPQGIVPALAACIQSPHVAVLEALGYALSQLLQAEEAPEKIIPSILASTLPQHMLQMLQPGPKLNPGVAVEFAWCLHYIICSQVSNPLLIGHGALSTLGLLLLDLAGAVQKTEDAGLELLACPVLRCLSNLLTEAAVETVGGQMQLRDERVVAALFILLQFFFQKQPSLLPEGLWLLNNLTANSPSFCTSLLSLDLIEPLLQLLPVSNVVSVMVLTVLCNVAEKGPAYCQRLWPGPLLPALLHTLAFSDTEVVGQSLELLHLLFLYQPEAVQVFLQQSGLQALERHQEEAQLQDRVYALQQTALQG
UniProt Q96EI5: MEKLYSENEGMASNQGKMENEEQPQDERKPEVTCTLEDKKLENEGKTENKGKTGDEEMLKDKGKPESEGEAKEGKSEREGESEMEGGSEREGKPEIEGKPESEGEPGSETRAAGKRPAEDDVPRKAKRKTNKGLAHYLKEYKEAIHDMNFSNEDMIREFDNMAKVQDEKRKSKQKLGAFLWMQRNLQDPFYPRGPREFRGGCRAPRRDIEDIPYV
UniProt Q92966: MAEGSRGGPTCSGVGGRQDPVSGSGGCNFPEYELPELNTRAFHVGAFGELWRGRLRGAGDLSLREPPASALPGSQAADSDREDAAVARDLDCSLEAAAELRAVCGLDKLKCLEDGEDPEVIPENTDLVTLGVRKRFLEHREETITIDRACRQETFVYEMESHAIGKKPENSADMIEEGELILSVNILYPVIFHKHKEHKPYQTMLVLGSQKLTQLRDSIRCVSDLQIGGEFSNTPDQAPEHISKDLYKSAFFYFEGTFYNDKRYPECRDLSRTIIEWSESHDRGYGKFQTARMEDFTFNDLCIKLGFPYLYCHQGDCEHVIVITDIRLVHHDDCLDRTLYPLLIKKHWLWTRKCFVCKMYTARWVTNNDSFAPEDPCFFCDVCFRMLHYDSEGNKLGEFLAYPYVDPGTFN
UniProt Q96CB8, whole entry: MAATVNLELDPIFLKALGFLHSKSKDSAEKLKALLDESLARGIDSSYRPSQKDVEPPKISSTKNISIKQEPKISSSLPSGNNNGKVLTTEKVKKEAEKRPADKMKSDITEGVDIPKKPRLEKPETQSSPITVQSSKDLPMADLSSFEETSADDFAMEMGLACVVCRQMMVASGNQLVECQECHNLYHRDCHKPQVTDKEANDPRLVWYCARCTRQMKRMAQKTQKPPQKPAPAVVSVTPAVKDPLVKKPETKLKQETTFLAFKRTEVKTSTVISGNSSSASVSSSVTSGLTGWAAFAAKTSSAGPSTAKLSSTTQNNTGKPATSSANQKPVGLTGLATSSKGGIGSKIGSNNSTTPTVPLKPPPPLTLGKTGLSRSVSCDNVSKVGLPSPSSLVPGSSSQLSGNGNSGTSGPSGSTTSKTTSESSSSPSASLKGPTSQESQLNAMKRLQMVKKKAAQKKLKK
UniProt Q92692, whole entry: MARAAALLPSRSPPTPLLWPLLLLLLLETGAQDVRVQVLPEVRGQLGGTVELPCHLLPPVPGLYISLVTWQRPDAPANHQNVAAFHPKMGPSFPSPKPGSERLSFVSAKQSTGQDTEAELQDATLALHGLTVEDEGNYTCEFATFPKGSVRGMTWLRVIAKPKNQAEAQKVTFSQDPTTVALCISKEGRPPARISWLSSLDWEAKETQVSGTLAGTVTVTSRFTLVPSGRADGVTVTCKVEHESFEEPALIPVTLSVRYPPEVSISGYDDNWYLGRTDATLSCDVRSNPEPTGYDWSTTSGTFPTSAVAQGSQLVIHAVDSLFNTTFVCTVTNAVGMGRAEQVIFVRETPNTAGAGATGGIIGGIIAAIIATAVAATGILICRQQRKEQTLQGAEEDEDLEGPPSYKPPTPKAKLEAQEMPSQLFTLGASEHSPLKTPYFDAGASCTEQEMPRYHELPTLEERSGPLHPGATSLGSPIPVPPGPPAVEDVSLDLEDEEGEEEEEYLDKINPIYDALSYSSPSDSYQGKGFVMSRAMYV

Compound in the assay: Cc1nc(Nc2ncc(C(=O)Nc3c(C)cccc3Cl)s2)cc(N2CCN(CCO)CC2)n1 [dasatinib]
In words: log2 fold change of tryptic peptide abundance, ligand vs vehicle (limited proteolysis) (log2 ratio); higher = more trypsin-susceptible (destabilized). As to conditions: ligand concentration: 5 uM; sample: K562 cleared lysate.

The list shows a part of the results. Most values lie at the level of the controls, where differences are scatter.

On to “SGTB (peptide sequence: SFSSSAEEHS, peptide start residue: 295) (UniProt Q96EQ0)”, for which the log2 fold change is -0.028.

“UniProt Q96DL1 (peptide sequence: KHGHPFVTKK, peptide start residue: 412)”: the log2 fold change was -0.185.

As to “SGK3 (peptide sequence: RAGLNEFIQNLVR, peptide start residue: 91) (UniProt Q96BR1)”, the log2 fold change stood at 0.163.

“FAM122A (peptide sequence: HGLLLPASPVR, peptide start residue: 69) (UniProt Q96E09)”: the log2 fold change is -0.298.

For the target “KHSRP (peptide sequence: MMLDDIVSR, peptide start residue: 206) (UniProt Q92945)”, the log2 fold change was -0.132.

Take “CUL5 (peptide sequence: VLSHQDDTALLK, peptide start residue: 80) (UniProt Q93034)”: the log2 fold change is -0.323.

As to “TMCO6 (peptide sequence: LRPTVCGVEELRR, peptide start residue: 9) (UniProt Q96DC7)”, the log2 fold change is -0.769.

Take “TCEAL4 (peptide sequence: KLENEGKTENK, peptide start residue: 40) (UniProt Q96EI5)”: the log2 fold change stood at 0.627.

For “SNAPC3 (peptide sequence: AFHVGAFGELWR, peptide start residue: 41) (UniProt Q92966)”, the log2 fold change is -0.152.

As to “INTS12 (peptide sequence: SVSCDNVSK, peptide start residue: 376) (UniProt Q96CB8)”, the log2 fold change came out at 0.361.

Consider “NECTIN2 (peptide sequence: YHELPTLEER, peptide start residue: 454) (UniProt Q92692)”, for which the log2 fold change was 0.246.
